{"sequences": {"note": "By UniProt entry, the sequences of proteins in these tests, tags left out. Where a name states a change or a piece, a line headed by the entry shows the natural chain unless it says otherwise.", "UniProt P18054": "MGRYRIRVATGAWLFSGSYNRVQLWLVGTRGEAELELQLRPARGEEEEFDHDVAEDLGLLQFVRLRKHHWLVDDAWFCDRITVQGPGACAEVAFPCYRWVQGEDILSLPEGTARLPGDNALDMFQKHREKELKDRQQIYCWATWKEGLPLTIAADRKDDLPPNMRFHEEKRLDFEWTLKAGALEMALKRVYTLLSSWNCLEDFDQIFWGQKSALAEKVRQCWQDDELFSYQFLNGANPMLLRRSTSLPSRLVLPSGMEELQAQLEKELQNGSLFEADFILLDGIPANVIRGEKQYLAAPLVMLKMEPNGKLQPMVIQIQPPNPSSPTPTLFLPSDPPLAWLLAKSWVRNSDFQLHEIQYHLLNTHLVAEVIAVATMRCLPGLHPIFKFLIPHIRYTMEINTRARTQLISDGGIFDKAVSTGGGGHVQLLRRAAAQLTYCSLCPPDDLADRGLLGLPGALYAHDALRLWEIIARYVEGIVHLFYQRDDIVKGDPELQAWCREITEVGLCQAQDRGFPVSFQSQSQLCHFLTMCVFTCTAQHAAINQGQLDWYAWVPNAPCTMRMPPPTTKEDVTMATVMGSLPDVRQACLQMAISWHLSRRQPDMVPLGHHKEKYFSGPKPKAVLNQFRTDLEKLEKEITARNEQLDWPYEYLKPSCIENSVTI"}, "source": "PubChem BioAssay AID1671190", "about": "(National Center for Advancing Translational Sciences (NCATS), 2021)", "note": "Among all 580,000 compounds or so, about 6,100 (1.1%) were called active. Inconclusive means that the source gave no clear call. Such entries were picked first, then a sample of the others. The call rests on the fitted dose curve; in most records, active means well fitted inhibition curve with a large enough effect; inconclusive means small, poorly fitted or top-dose-only effect, or another doubt; inactive means no such curve, though single readings can be large or run the other way. Where the call is inconclusive, the potency comes from a doubtful curve fit. On the % scale 0 is the no-effect control and ±100 the full control effect; potency means the concentration at half of the fitted maximal effect.", "data": [{"target": "Polyunsaturated fatty acid lipoxygenase ALOX12 (Homo sapiens) (UniProt P18054)", "experiment": "Primary qHTS assay for inhibitors of human arachidonate 12S-lipoxygenase (ALOX12): Round 2", "conditions": "purified 12hLO, xylenol orange hydroperoxide absorbance; activity change, negative = inhibition: at 108 µM (top of the series) unless noted", "how_it_was_run": "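Purified human 12hLO (150 nM final) in 25 mM Hepes, 0.01% Triton X-100, pH 7.0 was preincubated 15 min at room temperature with compound. Then 40 uM arachidonic acid was added, 30 min. Hydroperoxide was read by Fe-XO absorbance ratio 573/405 nm.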", "values": [{"smiles": "C=C(C)c1cccc(C(C)(C)NC(=O)Nc2ccccc2OCC)c1", "Potency": "inactive"}, {"smiles": "CN(C)S(=O)(=O)c1ccc(NC(=O)CN2C(=O)NC3(CCCC3)C2=O)cc1", "Potency": "inconclusive: 35.5 µM [inhibitor, partial curve, poor fit]"}, {"smiles": "c1cncc(Nc2cc3c(cn2)CN(CC2CCCCC2)CCN3)c1", "Potency": "inconclusive: 44.7 µM [inhibitor, full curve]"}, {"smiles": "Cc1cc(C)cc(-n2nnc(C(=O)NCc3ccc4c(c3)OCO4)c2N)c1", "Potency": "inconclusive: 56.2 µM [inhibitor, partial curve, poor fit]"}, {"smiles": "CCOc1cccc(C2c3c(oc4ccccc4c3=O)C(=O)N2c2nc(C)c(C(=O)OC)s2)c1", "note": "(stereo unspecified)", "Potency": "inconclusive: 56.2 µM [inhibitor, partial curve, poor fit]"}, {"smiles": "O=C(CSc1nnc(-c2c[nH]c3ccccc23)o1)N1CCCCC1", "Potency": "inactive"}, {"smiles": "COc1ccc(Nc2nc(N)c(C(=O)c3cc(C)c(C)cc3C)s2)cc1", "Potency": "inconclusive: 79.4 µM [inhibitor, partial curve, poor fit]"}, {"smiles": "CCOC(=O)N1CCC(NS(=O)(=O)c2ccc(C)cc2)CC1", "Potency": "inactive"}, {"smiles": "CCC(CO)NC(=O)c1ccc(-c2nn(C)c(=O)c3ccccc23)cc1", "note": "(stereo unspecified)", "activity change, negative = inhibition": "inconclusive: -39.5% [inhibitor]"}, {"smiles": "CC1CCc2nc(N)c(C#N)c(-c3ccc(F)cc3)c2C1", "note": "(stereo unspecified)", "Potency": "inactive"}, {"smiles": "CN(C)CCCCSC(=N)N", "Potency": "inactive"}, {"smiles": "Cc1ccc(NCC(=O)N2CCN(S(C)(=O)=O)CC2)cc1F", "Potency": "inconclusive: 20 µM [inhibitor, partial curve, poor fit]"}, {"smiles": "O=[N+]([O-])c1ccccc1CN1CCN(Cc2ccc3ccccc3c2)CC1", "Potency": "inconclusive: 25.1 µM [inhibitor, partial curve, poor fit]"}, {"smiles": "CC(C)CN(C(=O)COC(=O)CSc1ccc([N+](=O)[O-])cc1)C1CCS(=O)(=O)C1", "note": "(stereo unspecified)", "Potency": "inconclusive: 39.8 µM [inhibitor, partial curve, poor fit]"}, {"smiles": "COc1ccc(NC(=O)CC2C(=O)N(c3cccc(OC)c3)C(=O)N2C2CCCCC2)cc1", "note": "(stereo unspecified)", "Potency": "inactive"}, {"smiles": "CCOc1ccccc1NC(=O)c1ccc(CN2CCCC2=O)cc1", "Potency": "inactive"}, {"smiles": "CSc1ccc(CN(C)C(=O)CSc2nnc(COc3ccc(Cl)cc3)n2C)cc1", "Potency": "inconclusive: 89.1 µM [inhibitor, single point]"}, {"smiles": "CC(Sc1ccc2c(c1)OCCCO2)C(=O)Nc1ccc2ccccc2c1", "note": "(stereo unspecified)", "Potency": "inconclusive: 100 µM [inhibitor, single point]"}, {"smiles": "Oc1ccc(N2CCN(Cc3c(-c4ccccc4)nc4ccccn34)CC2)cc1", "Potency": "inconclusive: 44.7 µM [inhibitor, partial curve, poor fit]"}, {"smiles": "Cc1ccc2c(CC(=O)NC3=NCCS3)coc2c1", "Potency": "inconclusive: 44.7 µM [inhibitor, partial curve, poor fit]"}, {"smiles": "CC1(c2nnnn2Cc2ccccc2)CCC(=O)N1CC(F)(F)F", "note": "(stereo unspecified)", "Potency": "inconclusive: 39.8 µM [inhibitor, single point]"}, {"smiles": "CCOC(=O)[C@H]1[C@H]2COc3ccc(C)cc3[C@@H]2N2C(=O)CN(Cc3ccc(Cl)cc3)C(=O)[C@@]12C", "Potency": "inconclusive: 112 µM [inhibitor, single point]"}, {"smiles": "c1ccc(CCn2nnnc2CN2CCCc3ccccc32)cc1", "Potency": "inconclusive: 44.7 µM [inhibitor, partial curve, poor fit]"}, {"smiles": "CC(=O)c1cn(CC(=O)NCc2ccc(F)cc2)c2ccccc12", "Potency": "inactive"}, {"smiles": "Cc1ccc(-n2c(CCC(=O)O)ccc2-c2cccs2)cc1", "Potency": "inconclusive: 15.8 µM [inhibitor, full curve]"}, {"smiles": "Cn1c(-c2ccsc2)cc2c(Nc3ccc(Oc4ccccc4)cc3)nccc21", "Potency": "inactive"}, {"smiles": "Cc1ccc([C@H]2C[C@H](n3cc(-c4ccc(F)cc4)nn3)[C@@H](O)CN2C(=O)C2CCCCC2)cc1", "Potency": "inconclusive: 56.2 µM [inhibitor, partial curve, poor fit]"}, {"smiles": "Fc1ccccc1OCCn1c(=S)[nH]c2ccccc21", "Potency": "inconclusive: 44.7 µM [inhibitor, partial curve, poor fit]"}, {"smiles": "COc1ccc(Cc2c(-c3cccc(Cl)c3)nc3ccc(Cl)cn23)c(C)c1", "Potency": "inconclusive: 50.1 µM [inhibitor, partial curve, poor fit]"}, {"smiles": "CC(C)NC(=O)N1CCCC1c1noc(CCC(=O)NC2CC2)n1", "note": "(stereo unspecified)", "Potency": "inconclusive: 56.2 µM [inhibitor, single point]"}, {"smiles": "CCOc1cc(CNc2ccc(O)cc2)cc(Br)c1OCc1ccccc1", "Potency": "inconclusive: 15.8 µM [inhibitor, partial curve, poor fit]"}, {"smiles": "CCOC(=O)c1cnn(-c2ccccc2)c1-n1cccc1C(=O)C(=O)Nc1ccccc1C(F)(F)F", "Potency": "inconclusive: 56.2 µM [inhibitor, partial curve, poor fit]"}, {"smiles": "CCOc1ccccc1NC(=O)COC(=O)Cc1cccs1", "Potency": "inactive"}, {"smiles": "CCC1CCCCN1C(=O)CCn1cnc2c1c(=O)n(C)c(=O)n2C", "note": "(stereo unspecified)", "Potency": "inactive"}, {"smiles": "CCOC(=O)c1cccn1C1C(=O)N(Cc2ccc(OC)cc2)c2ccc(OC)cc21", "note": "(stereo unspecified)", "Potency": "inconclusive: 100 µM [inhibitor, single point]"}, {"smiles": "CCCCN(C(=O)c1ccc(-c2ccc(Cl)cc2)o1)c1c(N)n(CC(C)C)c(=O)[nH]c1=O", "Potency": "inconclusive: 89.1 µM [inhibitor, partial curve, poor fit]"}, {"smiles": "O=C(CSc1nc(=O)n(Cc2ccco2)c2c1CCC2)NCc1ccco1", "Potency": "inconclusive: 50.1 µM [inhibitor, full curve, poor fit]"}, {"smiles": "CC(=O)Oc1ccc2c(c1)C(=O)c1ccccc1CO2", "Potency": "inconclusive: 28.2 µM [inhibitor, partial curve, poor fit]"}, {"smiles": "O=C(CSc1nc2ccccc2c(=O)n1CCCN1CCOCC1)c1ccc2c(c1)CCCC2", "Potency": "inactive"}, {"smiles": "COc1ccccc1N1CCN(C(=O)c2cc(-c3ccco3)on2)CC1", "Potency": "inconclusive: 5.01 µM [inhibitor, full curve, poor fit]"}, {"smiles": "NNc1ccc(S(=O)(=O)Nc2ccc(Cl)cc2)cc1[N+](=O)[O-]", "Potency": "inconclusive: 31.6 µM [inhibitor, partial curve, poor fit]"}]}]}
